From the supplement of paper PMC12823440, “Inhibitors supercharge kinase turnover through native proteolytic circuits” (Nature, 2025)
Counter-ions that a name gives are not always drawn. The list shows a part of the results. The calls rarely recur for the same compound in another form.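 In K562 cells expressing nanoluciferase-fused kinases, luminescence was recorded at 4 h intervals between 2 and 18 h, normalized as percent of control with DMSO at 100% and a positive control at 0%. A significant (2 sigma) signal drop marks a time point as decreased. The authors' rule for a hit is not shown and takes in more than the number of time points.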

Chains of the proteins cited; added tags and fusions are not shown. Lines headed by an entry give the natural chain unless they say otherwise; changes in a name come on top.
UniProt P07948: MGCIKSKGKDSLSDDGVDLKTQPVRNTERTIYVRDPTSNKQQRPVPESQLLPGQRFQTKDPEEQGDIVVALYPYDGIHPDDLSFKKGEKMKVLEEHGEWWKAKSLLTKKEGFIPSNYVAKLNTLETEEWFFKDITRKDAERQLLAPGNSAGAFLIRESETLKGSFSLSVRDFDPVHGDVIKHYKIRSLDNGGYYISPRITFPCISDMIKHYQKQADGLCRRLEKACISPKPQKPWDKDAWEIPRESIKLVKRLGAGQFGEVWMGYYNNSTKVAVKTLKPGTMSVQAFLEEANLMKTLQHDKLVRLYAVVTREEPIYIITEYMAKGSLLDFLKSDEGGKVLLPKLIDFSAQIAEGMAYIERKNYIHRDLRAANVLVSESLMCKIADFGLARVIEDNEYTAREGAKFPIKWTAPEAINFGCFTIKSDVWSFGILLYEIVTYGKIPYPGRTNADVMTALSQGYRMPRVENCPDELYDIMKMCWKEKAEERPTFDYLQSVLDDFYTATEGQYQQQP
UniProt Q12851: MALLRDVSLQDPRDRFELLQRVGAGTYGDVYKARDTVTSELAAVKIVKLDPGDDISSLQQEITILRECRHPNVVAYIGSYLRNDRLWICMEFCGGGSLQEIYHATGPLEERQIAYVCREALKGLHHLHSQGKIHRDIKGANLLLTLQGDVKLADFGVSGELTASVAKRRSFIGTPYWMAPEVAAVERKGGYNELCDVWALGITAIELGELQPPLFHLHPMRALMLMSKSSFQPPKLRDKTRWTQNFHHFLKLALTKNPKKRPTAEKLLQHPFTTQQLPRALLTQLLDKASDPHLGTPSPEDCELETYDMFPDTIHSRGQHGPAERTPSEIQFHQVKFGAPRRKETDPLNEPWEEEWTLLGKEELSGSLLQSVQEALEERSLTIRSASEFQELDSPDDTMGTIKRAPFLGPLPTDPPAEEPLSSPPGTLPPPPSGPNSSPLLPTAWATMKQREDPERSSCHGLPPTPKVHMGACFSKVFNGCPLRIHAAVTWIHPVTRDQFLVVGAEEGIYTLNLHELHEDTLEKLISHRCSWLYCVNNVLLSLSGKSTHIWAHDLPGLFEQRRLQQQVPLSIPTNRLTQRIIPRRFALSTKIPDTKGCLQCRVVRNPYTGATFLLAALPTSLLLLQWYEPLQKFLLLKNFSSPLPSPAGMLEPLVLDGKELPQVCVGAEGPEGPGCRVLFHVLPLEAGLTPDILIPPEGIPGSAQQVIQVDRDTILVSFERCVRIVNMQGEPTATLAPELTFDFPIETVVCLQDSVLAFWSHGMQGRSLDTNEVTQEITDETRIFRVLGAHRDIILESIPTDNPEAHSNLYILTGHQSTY
UniProt P28482, whole entry: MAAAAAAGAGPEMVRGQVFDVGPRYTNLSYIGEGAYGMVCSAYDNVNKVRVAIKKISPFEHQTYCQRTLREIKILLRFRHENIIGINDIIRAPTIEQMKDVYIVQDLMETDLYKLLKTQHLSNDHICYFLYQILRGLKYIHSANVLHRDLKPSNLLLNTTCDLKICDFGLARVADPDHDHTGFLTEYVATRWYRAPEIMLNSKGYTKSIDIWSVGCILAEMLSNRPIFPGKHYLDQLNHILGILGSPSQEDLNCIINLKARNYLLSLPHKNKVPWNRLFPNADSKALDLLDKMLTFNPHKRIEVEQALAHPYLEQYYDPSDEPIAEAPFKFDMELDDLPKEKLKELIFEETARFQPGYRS
UniProt Q16288, whole entry, looked up: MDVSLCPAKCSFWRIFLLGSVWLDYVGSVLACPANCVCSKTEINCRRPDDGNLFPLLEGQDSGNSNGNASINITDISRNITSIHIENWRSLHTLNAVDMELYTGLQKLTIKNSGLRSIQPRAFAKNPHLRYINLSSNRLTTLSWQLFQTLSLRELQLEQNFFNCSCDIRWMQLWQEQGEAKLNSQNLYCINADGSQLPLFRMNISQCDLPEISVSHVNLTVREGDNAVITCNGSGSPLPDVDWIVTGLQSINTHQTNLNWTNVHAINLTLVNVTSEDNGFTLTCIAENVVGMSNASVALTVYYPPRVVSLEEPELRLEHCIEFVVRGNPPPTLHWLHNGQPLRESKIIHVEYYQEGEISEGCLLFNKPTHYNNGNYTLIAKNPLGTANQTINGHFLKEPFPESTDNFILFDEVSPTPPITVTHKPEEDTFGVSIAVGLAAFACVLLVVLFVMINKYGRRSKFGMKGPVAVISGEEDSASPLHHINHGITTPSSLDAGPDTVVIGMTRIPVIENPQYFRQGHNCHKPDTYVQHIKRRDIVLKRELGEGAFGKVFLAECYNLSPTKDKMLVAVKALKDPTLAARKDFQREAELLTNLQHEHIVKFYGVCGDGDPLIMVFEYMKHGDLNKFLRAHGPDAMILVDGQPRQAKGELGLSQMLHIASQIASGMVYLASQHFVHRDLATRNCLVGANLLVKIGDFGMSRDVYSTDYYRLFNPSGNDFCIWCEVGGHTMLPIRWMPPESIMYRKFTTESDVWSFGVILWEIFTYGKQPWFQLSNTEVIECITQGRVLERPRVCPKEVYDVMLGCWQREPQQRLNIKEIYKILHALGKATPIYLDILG
UniProt Q96KB5: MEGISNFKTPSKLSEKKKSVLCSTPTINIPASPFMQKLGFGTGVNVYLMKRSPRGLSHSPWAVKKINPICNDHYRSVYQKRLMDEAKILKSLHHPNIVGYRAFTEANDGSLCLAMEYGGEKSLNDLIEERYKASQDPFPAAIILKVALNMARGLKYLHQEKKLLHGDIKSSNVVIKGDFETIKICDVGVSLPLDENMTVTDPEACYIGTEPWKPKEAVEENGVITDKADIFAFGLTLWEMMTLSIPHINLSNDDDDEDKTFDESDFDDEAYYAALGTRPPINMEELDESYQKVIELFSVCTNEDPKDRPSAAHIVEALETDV
UniProt P09619, whole entry: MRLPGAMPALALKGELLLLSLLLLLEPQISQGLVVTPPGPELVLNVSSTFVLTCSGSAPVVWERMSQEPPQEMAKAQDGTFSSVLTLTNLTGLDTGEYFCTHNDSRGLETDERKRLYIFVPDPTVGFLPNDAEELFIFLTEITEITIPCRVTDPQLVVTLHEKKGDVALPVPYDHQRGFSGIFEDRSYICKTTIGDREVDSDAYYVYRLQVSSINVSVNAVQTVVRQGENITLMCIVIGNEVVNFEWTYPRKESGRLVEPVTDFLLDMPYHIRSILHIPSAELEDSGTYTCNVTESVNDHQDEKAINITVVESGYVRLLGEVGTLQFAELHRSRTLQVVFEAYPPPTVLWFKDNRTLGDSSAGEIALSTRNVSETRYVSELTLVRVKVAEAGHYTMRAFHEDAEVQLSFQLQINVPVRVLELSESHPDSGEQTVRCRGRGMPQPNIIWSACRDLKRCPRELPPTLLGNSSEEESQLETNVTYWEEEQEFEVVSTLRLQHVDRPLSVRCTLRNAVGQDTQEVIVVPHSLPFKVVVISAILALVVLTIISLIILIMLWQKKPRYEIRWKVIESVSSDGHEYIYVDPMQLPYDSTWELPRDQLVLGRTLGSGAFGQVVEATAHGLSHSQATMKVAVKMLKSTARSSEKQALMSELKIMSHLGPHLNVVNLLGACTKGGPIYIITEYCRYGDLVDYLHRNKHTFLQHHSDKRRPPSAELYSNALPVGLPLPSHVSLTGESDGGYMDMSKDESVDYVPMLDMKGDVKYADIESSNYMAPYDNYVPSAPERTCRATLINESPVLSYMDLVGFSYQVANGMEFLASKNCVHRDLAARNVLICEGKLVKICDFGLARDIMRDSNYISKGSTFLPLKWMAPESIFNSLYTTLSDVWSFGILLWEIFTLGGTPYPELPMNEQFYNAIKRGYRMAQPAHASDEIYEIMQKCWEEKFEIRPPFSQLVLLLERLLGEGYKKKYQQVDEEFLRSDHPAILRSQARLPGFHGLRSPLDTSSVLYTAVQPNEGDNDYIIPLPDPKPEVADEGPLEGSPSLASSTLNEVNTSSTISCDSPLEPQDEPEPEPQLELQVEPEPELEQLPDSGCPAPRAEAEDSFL
UniProt Q15118, whole entry, looked up: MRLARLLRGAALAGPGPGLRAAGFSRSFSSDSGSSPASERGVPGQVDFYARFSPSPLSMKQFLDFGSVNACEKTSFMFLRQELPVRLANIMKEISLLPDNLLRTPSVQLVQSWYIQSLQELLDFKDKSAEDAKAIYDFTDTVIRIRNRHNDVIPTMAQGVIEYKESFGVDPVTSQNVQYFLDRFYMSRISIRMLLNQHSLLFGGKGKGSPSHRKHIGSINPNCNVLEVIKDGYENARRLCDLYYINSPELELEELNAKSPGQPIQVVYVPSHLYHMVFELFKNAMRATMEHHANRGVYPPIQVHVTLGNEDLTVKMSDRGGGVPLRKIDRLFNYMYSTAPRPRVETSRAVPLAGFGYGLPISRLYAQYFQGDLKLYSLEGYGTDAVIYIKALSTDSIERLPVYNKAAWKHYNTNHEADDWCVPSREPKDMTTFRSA
UniProt P42356, whole entry, looked up: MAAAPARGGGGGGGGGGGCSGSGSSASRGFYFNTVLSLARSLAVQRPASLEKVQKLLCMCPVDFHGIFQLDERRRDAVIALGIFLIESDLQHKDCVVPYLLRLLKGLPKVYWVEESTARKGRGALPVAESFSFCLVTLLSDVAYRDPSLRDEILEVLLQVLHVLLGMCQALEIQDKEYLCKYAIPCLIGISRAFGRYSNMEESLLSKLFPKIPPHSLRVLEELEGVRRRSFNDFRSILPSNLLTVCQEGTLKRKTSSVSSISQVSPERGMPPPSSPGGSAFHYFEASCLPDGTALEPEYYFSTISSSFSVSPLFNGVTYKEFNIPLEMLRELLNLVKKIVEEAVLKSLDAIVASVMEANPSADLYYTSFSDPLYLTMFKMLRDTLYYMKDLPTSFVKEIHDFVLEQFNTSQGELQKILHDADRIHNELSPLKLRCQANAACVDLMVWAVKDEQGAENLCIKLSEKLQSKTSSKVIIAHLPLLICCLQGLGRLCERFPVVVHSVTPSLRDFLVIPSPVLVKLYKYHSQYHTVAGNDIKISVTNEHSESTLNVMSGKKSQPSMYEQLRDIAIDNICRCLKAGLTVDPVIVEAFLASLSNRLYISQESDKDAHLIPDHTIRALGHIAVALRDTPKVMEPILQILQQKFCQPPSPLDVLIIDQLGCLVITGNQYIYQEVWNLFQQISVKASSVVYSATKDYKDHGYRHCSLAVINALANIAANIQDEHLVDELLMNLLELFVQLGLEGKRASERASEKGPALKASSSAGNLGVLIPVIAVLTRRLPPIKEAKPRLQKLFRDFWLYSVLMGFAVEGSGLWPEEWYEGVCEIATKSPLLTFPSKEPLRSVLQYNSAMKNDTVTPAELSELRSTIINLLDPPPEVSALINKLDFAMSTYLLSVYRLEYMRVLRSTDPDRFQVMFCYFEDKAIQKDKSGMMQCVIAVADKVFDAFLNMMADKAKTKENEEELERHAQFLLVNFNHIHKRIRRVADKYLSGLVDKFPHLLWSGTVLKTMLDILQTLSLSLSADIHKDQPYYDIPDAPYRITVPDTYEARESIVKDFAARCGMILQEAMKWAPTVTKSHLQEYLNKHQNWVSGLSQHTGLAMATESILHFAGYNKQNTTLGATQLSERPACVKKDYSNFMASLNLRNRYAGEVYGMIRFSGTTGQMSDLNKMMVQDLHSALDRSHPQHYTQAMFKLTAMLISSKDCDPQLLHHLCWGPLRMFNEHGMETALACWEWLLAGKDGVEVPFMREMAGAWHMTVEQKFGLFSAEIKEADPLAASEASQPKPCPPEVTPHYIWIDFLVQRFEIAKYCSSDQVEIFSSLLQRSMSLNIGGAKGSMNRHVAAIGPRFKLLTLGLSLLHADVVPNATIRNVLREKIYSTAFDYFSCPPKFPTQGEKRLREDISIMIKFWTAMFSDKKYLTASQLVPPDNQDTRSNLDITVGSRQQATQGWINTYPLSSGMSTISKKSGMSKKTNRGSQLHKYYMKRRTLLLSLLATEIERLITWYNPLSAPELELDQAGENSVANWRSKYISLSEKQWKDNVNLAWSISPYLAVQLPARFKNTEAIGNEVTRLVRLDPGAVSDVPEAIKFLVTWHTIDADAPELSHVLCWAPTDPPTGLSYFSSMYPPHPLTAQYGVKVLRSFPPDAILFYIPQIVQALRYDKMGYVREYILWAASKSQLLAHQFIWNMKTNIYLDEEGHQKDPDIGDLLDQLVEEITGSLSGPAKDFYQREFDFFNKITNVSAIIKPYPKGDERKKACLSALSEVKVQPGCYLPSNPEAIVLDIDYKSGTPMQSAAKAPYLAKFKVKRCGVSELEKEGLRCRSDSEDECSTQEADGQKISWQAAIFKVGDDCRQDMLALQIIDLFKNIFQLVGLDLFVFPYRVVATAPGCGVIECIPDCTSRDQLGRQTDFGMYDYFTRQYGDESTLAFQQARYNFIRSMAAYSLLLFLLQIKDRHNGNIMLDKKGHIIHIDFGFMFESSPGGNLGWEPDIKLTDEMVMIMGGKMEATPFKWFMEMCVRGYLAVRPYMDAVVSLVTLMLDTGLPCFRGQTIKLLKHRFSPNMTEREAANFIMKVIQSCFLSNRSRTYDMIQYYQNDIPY

Assays:
Test in all cases: number of time points (of 5) at which kinase-Nluc abundance scored as decreased, DMSO-normalised (count); higher = more persistent destabilization
Settings in all cases: K562; 2-18 h
LMTK2 = LMTK2 (UniProt Q8IWU2)
LYN = LYN (UniProt P07948)
MAP2K1 = MAP2K1 (UniProt Q02750)
MAP2K2 = MAP2K2 (UniProt P36507)
MAP4K2 = MAP4K2 (UniProt Q12851)
MAPK1 = MAPK1 (UniProt P28482)
MAPK4 = MAPK4 (UniProt P31152)
MAPKAPK2 = MAPKAPK2 (UniProt P49137)
MKNK1 = MKNK1 (UniProt Q9BUB5)
NTRK2 = NTRK2 (UniProt Q16620)
NTRK3 = NTRK3 (UniProt Q16288)
PAK4 = PAK4 (UniProt O96013)
PBK = PBK (UniProt Q96KB5)
PDGFRB = PDGFRB (UniProt P09619)
PDK1 = PDK1 (UniProt Q15118)
PDPK1 = PDPK1 (UniProt O15530)
PIK4CA = PIK4CA (UniProt P42356)
PIK4CB = PIK4CB (UniProt Q9UBF8)
PLK1 = PLK1 (UniProt P53350)
PRKAA1 = PRKAA1 (UniProt Q13131)

Row | Structure (SMILES) | number of time points (LMTK2) | number of time points (LYN) | number of time points (MAP2K1) | number of time points (MAP2K2) | number of time points (MAP4K2) | number of time points (MAPK1) | number of time points (MAPK4) | number of time points (MAPKAPK2) | number of time points (MKNK1) | number of time points (NTRK2) | number of time points (NTRK3) | number of time points (PAK4) | number of time points (PBK) | number of time points (PDGFRB) | number of time points (PDK1) | number of time points (PDPK1) | number of time points (PIK4CA) | number of time points (PIK4CB) | number of time points (PLK1) | number of time points (PRKAA1)
1 | O=C(O)c1ccc(-c2c[nH]c3ncc(-c4ccccc4)cc23)cc1C1CCCC1 (2.5 µM) | 0 | 0 | 0 | 0 | 0 | 0 | 2 | 0 | 0 | 0 | 0 | 0 | 0 | 0 | 0 | 0 | 0 | 0 | 0 | 0
2 | Cn1cc(-c2cc3c(N4CCN(c5ncc([C@@](C)(N)c6ccc(F)cc6)cn5)CC4)ncnn3c2)cn1 [Avapritinib] (2.5 µM) | 0 | 0 | 0 | 0 | 0 | 0 | 0 | 0 | 0 | 0 | 0 | 0 | 0 | 0 | 0 | 0 | 0 | 0 | 0 | 0
3 | N=C(N)NC(=N)NCCc1ccccc1 [Phenformin (hydrochloride)] (10 µM) | 0 | 0 | 0 | 0 | 0 | 0 | 0 | 0 | 0 | 0 | 0 | 0 | 0 | 0 | 0 | 0 | 0 | 0 | 0 | 0
4 | COc1ncc(Nc2ncc([C@@H](C)N3CCN(S(C)(=O)=O)CC3)cc2-c2nc(C)nc(N)n2)cc1F (10 µM) | 0 | 0 | 0 | 0 | 0 | 0 | 0 | 0 | 0 | 0 | 0 | 0 | 0 | 0 | 0 | 0 | 0 | 0 | 0 | 0
5 | Nc1cccc(S(=O)(=O)N2CCCN(S(=O)(=O)c3ccc4c(c3)OCCO4)CC2)c1 (10 µM) | 0 | 0 | 0 | 0 | 0 | 0 | 0 | 0 | 0 | 0 | 0 | 0 | 0 | 0 | 0 | 0 | 0 | 0 | 0 | 0
6 | N#Cc1ccc(-c2c(-c3ncn[nH]3)sc(N3CCOCC3)c2C#N)c(F)c1 (10 µM) | 0 | 0 | 0 | 0 | 0 | 0 | 0 | 0 | 0 | 0 | 0 | 0 | 0 | 0 | 0 | 1 | 0 | 0 | 0 | 0
7 | Nc1cc(C(F)F)c(-c2nc(N3C4CCC3COC4)nc(N3C4CCC3COC4)n2)cn1 (2.5 µM) | 0 | 0 | 0 | 0 | 0 | 0 | 0 | 0 | 0 | 0 | 0 | 0 | 0 | 0 | 0 | 0 | 0 | 0 | 0 | 0
8 | C[C@@H]1COCCN1c1cc(C2([S@](C)(=N)=O)CC2)nc(-c2cc[nH]c3nccc2-3)n1 [Ceralasertib] (2.5 µM) | 0 | 0 | 0 | 0 | 0 | 0 | 0 | 0 | 0 | 0 | 0 | 0 | 0 | 0 | 0 | 0 | 0 | 0 | 0 | 0
9 | [O-][n+]1cccc(-c2nc3c(Cl)cccc3cc2[C@@H](Nc2ncnc3cccnc23)C(F)(F)F)c1 [Seletalisib] (10 µM) | 0 | 0 | 0 | 0 | 0 | 0 | 0 | 0 | 0 | 0 | 0 | 0 | 0 | 0 | 0 | 0 | 0 | 0 | 0 | 0
10 | NC(=O)c1ccc(-c2cnn3ccc(NCc4cccnc4)nc23)cc1 (2.5 µM) | 0 | 0 | 0 | 0 | 0 | 0 | 0 | 0 | 0 | 0 | 0 | 0 | 0 | 0 | 0 | 0 | 0 | 0 | 0 | 0
11 | c1ccc(-c2oc3ncnc(NC[C@@H]4CCCO4)c3c2-c2ccccc2)cc1 (2.5 µM) | 0 | 0 | 0 | 0 | 0 | 0 | 0 | 0 | 0 | 0 | 0 | 0 | 0 | 0 | 0 | 0 | 0 | 0 | 0 | 0
12 | NCCCCCCNS(=O)(=O)c1cccc2c(Cl)cccc12 [W-7 (hydrochloride)] (10 µM) | 0 | 0 | 0 | 0 | 0 | 0 | 0 | 0 | 0 | 0 | 0 | 0 | 0 | 0 | 0 | 0 | 0 | 0 | 0 | 0
13 | Fc1c(Br)cccc1Nc1ncnc2cc3c(cc12)OCCO3 (2.5 µM) | 0 | 0 | 0 | 0 | 0 | 0 | 0 | 0 | 2 | 0 | 0 | 0 | 0 | 1 | 1 | 0 | 0 | 0 | 0 | 0
14 | O[C@H]1CC[C@H](Nc2ncc3nc(Nc4c(F)cc(F)cc4F)n([C@H]4CCOC4)c3n2)CC1 [Tanzisertib] (10 µM) | 0 | 0 | 0 | 0 | 0 | 0 | 0 | 0 | 0 | 0 | 0 | 0 | 0 | 0 | 0 | 0 | 0 | 0 | 0 | 0
15 | O=C(CO)N1CCC(c2n[nH]c(-c3ccc(Cl)cc3)c2-c2ccncn2)CC1 (10 µM) | 0 | 0 | 0 | 0 | 0 | 0 | 0 | 0 | 0 | 0 | 0 | 0 | 0 | 0 | 0 | 0 | 0 | 0 | 0 | 0
16 | O=C1NCCCc2c1oc1ccc(O)cc21 (10 µM) | 0 | 0 | 0 | 0 | 0 | 0 | 0 | 0 | 0 | 0 | 0 | 0 | 0 | 0 | 0 | 0 | 0 | 0 | 0 | 0
17 | C[C@@H]1CCc2ncc(F)cc2[C@H]2CCCN2c2ccn3ncc(c3n2)C(=O)N1 [Selitrectinib] (10 µM) | 0 | 0 | 0 | 0 | 0 | 0 | 0 | 0 | 0 | 0 | 0 | 0 | 0 | 0 | 0 | 0 | 0 | 0 | 0 | 0
18 | O=c1ccc2ccc(O)c(O)c2o1 [Daphnetin] (10 µM) | 0 | 0 | 0 | 0 | 0 | 0 | 0 | 0 | 0 | 0 | 0 | 0 | 0 | 0 | 0 | 0 | 0 | 0 | 0 | 0
19 | CCc1c(C)sc(NC(=S)NC(=O)c2ccc(Cl)cc2)c1C(N)=O (10 µM) | 0 | 0 | 0 | 0 | 0 | 0 | 0 | 0 | 0 | 0 | 0 | 0 | 0 | 0 | 0 | 0 | 0 | 0 | 0 | 0
20 | O=c1ccoc2cc(O)ccc12 [7-Hydroxy-4H-chromen-4-one] (10 µM) | 0 | 0 | 0 | 0 | 0 | 0 | 0 | 0 | 0 | 0 | 0 | 0 | 0 | 0 | 0 | 0 | 0 | 0 | 0 | 0
21 | CCc1cccc(CC)c1NC(=O)c1nn(C)c2c1CCc1cnc(Nc3ccc(C(=O)NC4CCN(C)CC4)cc3OC(F)(F)F)nc1-2 (2 µM) | 0 | 0 | 0 | 0 | 0 | 0 | 0 | 0 | 0 | 0 | 0 | 0 | 0 | 0 | 0 | 0 | 0 | 0 | 0 | 0
22 | Cc1ccc(-c2ncn(-c3ccc(Nc4nccc(-c5cccc(N6CCOCC6)c5)n4)cc3)n2)cn1 (10 µM) | 0 | 0 | 0 | 0 | 0 | 0 | 0 | 0 | 0 | 0 | 0 | 0 | 0 | 0 | 0 | 0 | 0 | 0 | 0 | 0
23 | COC1(C(=O)N[C@@H](C)c2ccc(-n3cc(F)cn3)nc2)CCC(c2nc(C)cc(Nc3cc(C)[nH]n3)n2)CC1 (stereo partly drawn) [trans-Pralsetinib] (2.5 µM) | 0 | 0 | 0 | 0 | 0 | 0 | 0 | 0 | 0 | 0 | 0 | 0 | 0 | 0 | 0 | 0 | 0 | 0 | 0 | 0
24 | O=c1[nH]ccc2cc(OC3CCNCC3)ccc12 (10 µM) | 0 | 0 | 0 | 0 | 0 | 0 | 0 | 0 | 0 | 0 | 0 | 0 | 0 | 0 | 0 | 0 | 0 | 0 | 0 | 0
25 | O=C(CCCCCn1cc(Nc2ncc(Cl)c(Nc3ccc(Cl)cc3)n2)cn1)NO (2.5 µM) | 0 | 0 | 0 | 0 | 0 | 0 | 0 | 0 | 0 | 0 | 0 | 0 | 0 | 1 | 1 | 0 | 1 | 0 | 0 | 0

2 entries from above, comma-delimited:
Row,Structure (SMILES),number of time points (LMTK2),number of time points (LYN),number of time points (MAP2K1),number of time points (MAP2K2),number of time points (MAP4K2),number of time points (MAPK1),number of time points (MAPK4),number of time points (MAPKAPK2),number of time points (MKNK1),number of time points (NTRK2),number of time points (NTRK3),number of time points (PAK4),number of time points (PBK),number of time points (PDGFRB),number of time points (PDK1),number of time points (PDPK1),number of time points (PIK4CA),number of time points (PIK4CB),number of time points (PLK1),number of time points (PRKAA1)
16,O=C1NCCCc2c1oc1ccc(O)cc21 (10 µM),0,0,0,0,0,0,0,0,0,0,0,0,0,0,0,0,0,0,0,0
17,C[C@@H]1CCc2ncc(F)cc2[C@H]2CCCN2c2ccn3ncc(c3n2)C(=O)N1 [Selitrectinib] (10 µM),0,0,0,0,0,0,0,0,0,0,0,0,0,0,0,0,0,0,0,0
